Results from patent US20250282866A1, “TREATMENT OF DISEASES RELATED TO ATP-BINDING CASSETTE TRANSPORTER 1 DYSFUNCTION USING TREM2 AGONISTS” (VIGIL NEUROSCIENCE, INC., priority 2020, published 2025).
Results are given in words; binding and its absence hold for the method and conditions named. Some results given as binding are weak or reduced against the parent protein; the word gives no strength.

Protein sequences, listed by entry. Tags and fused reporters are not part of them. Lines headed by an entry give the natural chain unless they say otherwise; changes in a name come on top.
UniProt Q9NZC2: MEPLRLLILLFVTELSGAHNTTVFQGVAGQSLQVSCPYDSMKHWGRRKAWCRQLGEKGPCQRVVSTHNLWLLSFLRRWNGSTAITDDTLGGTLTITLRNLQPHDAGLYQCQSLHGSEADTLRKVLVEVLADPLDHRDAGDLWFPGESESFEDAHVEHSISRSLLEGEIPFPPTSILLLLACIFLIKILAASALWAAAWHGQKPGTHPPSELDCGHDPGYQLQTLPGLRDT

B1: 10E3 (antibody, V domains shown)
VH: EVQLVQSGAEVKKPGESLMISCKGSGYSFTNYWIGWVRQMPGKGLEWMGIIYPGDSDTRYSPSFQGQVTISADKSISTAYLQWSSLKASDTAMYFCARRRQGIWGDALDIWGQGTLVTVSS
VL: EIVMTQSPATLSVSPGERATLSCRASQSVSSNLAWFQQKPGQAPRLLIYGASTRATGIPARFSVSGSGTEFTLTISSLQSEDFAFYYCLQDNNWPPTFGPGTKVDIK
B2: 26C10 (antibody, V domains shown)
VH: EVQLVESGGALVQPGGSLRLSCAASGFTFSSFGMSWVRQAPGKGLEWVSYISSSSFTIYYADSVKGRFTISRDNAKNSFYLQMNSLRDEDTAVYFCVREGGITMVRGVSSYGMDVWGQGTTVTVSS
VL: SFELTQPPSVSVSPGQTASITCSGDKLGDKYVCWYQQKPGQSPMLVIYQDTKRPSGIPERFSGSNSGNTATLTISGTQAMDEADYYCQAWDSSTVVFGGGTKLTVL
B3: 5E3 (antibody, V domains shown)
VH: QVQLVQSGAEVKKPGASVKVSCKASGYTFTGYYIHWVRQAPGLGLEWMGWINPYSGGTTSAQKFQGRVTMTRDTSISSAYMELSRLRSDDTAVYYCARDGGYLALYGTDVWGQGTTVTVSS
VL: DIQMTQSPSSLSASVGDRVTITCRASQGISNYLAWFQQKPGKAPKSLIYAASSLQSGVPSKFSGSGSGTDFTLTISSLQPEDFATYYCQQYSTYPFTFGPGTKVDIK
B4: 13E7 (antibody, V domains shown)
VH: EVQLVQSGAEVKKPGESLMISCKGSGYSFTSYWIGWVRQMPGKGLEWMGIIYPGDSDTRYSPSFQGQVTISADKSISTAYLQWSSLKASDTAMYFCARRRQGIWGDALDFWGQGTLVTVSS
VL: EIVMTQSPATLSVSPGERATLSCRASQSVSSNLAWFQQKPGQAPRLLIYGASTRATGIPARFSVSGSGTEFTLTISSLQSEDFAVYYCLQDNNWPPTFGPGTKVDIK
B5: 4C5 (antibody, V domains shown)
VH: EVQLVQSGAEVKKPGESLKISCKGSGHSFTNYWIAWVRQMPGKGLEWMGIIYPGDSDTRYSPSFQGQVTISADKSISTAYLQWSSLKASDTAVYFCARQRTFYYDSSGYFDYWGQGTLVTVSS
VL: DIQMTQSPSSVSASVGDRVTITCRASQGISNWLAWYQQKPGKAPKLLIYAASSLQVGVPLRFSGSGSGTDFTLTISSLQPEDFATYYCQQADSFPRNFGQGTKLEIK
B6: 4G10 (antibody, V domains shown)
VH: EVQLVQSGAEVKKPGESLKISCKGSGYSFPSYWIAWVRQMPGKGLEWMGIIYPGDSDTRYSPSFQGQVTISADKSISTAFLKWSSLKASDTAMYFCARQGIEVTGTGGLDVWGQGTTVTVSS
VL: DIQMTQSPSSLSASVGDRVTITCRASQGIRNDLGWYQQKPGNAPKRLIYAASSLPSGVPSRFSGSGSGPEFTLTISSLQPEDFATYYCLQHNSYPWTFGQGTKVEIT
B7: 32E3 (antibody, V domains shown)
VH: EVQLVQSGAEVKKPGESLKISCKGSGYSFTSYWIGWVRQMPGKGLEWMGIIYPGDSDTRYSPSFQGQVTISADKSISTAYLQWSTLKASDTAIYYCARHDIIPAAPGAFDIWGQGTMVTVSS
VL: EFVLTQSPGTLSLSPGERATLSCRASQIISSNYLAWYQQKPGQAPRLLIYSASSRATGIPDRFSGSGSGTDFTLTISRLEPEDFAVYYCQQFDSSPITFGRGTRLDIK
B8: 6E7 (antibody, V domains shown)
VH: EVQLVQSGAEVKKPGESLKISCKGSGYSFTSYWIAWVRQMPGKGLEWMGIIYPGDSDTRYSPSFQGQVTISADKSISTAYLQWSSLKASDTAMYFCARQRTFYYDSSDYFDYWGQGTLVTVSS
VL: DIQMTQSPSSVSASVGDRVTITCRASQGISSWLAWYQQKPGKAPKLLIYAASSLQNGVPSRFSGSGSGTDFTLTISSLQPEDFATYFCQQADSFPRTFGQGTKLEIK
B9: 16B8 (antibody, V domains shown)
VH: QVQLVQSGAEVKKPGASVKVSCKASGYTFTNYGISWVRQAPGQGLEWMGWISAYNGNTNYAQKLQGRVTMTTDTSTSTVYMELRSLRSDDTAVYYCARRGYSYGSFDYWGQGTLVTVSS
VL: DIQMTQSPSSVSASVGDRVTVTCRASQDINSWLAWYQQKPGKAPKLLIYAASSLQTGVPSRFSGSGSGTDFTLTISSLQPEDFATYSCQQSNSFPITFGQGTRLEIK

Target: human TREM2 (human) (UniProt Q9NZC2)
Test: Octet BLI competition

binding, binds:
B1, B2, B3, B4, B5, B6, B7, B8, B9
